{"source": "PubChem BioAssay AID504791 (Drosophila RNAi Screening Center, 2011)", "aim": "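Genes whose knock-down strengthens or weakens small-RNA reporter silencing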 (primary screen)", "cells": "Drosophila S2-derived reporter cells", "reagent": "long dsRNA against Drosophila genes, about 150-250 ng dsRNA per well (siRNA assay); about 80-120 ng (miRNA assay)", "timing": "about 5 days (siRNA assay); about 4 days (miRNA assay)", "treatment": "copper sulfate induction of reporters: 25 µM (siRNA assay); 200 mM stated (miRNA assay), 1-2 days before reading", "measured": "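Dual luciferase assay: Renilla to firefly signal ratio in each well, scaled to the mean ratio of its plate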", "units": "stable assay Renilla, run 1 in luminescence; stable assay firefly, run 1 in luminescence", "call rule": "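First-pass picks had plate-scaled ratios over 1.5 for the siRNA assay, over 1.6 for the miRNA assay, or under 0.6; two distinct dsRNAs had to score alike on retest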", "note": "In all, the deposit lists about 23,000 reagents; shown is an unselected part of those that have a named target and a result. In the full data, 199 (0.86%) are marked active. 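Plate-scaled ratios behind the calls are not deposited; printed light signals are raw; many rows marked increased or decreased are still called inactive.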 Unmarked entries are inactive. A plus sign joins genes that one reagent is predicted to hit. Reagent sequences are not shown. Not stated in the record: the direction of the score."}
The opening 2 entries, to show the layout:
{"Gene":"CG17636","PubChem SID":"SID104200440","stable siRNA reporter change":"reporter ratio raised past the hit cutoff","stable assay Renilla, run 1":6127,"stable assay firefly, run 1":2.72e5}
{"Gene":"CG10132","PubChem SID":"SID104181805","stable assay Renilla, run 1":45791,"stable assay firefly, run 1":1.08e6}

Main list, from the first entry:
{"Gene":"CG17636","PubChem SID":"SID104200440","stable siRNA reporter change":"reporter ratio raised past the hit cutoff","stable assay Renilla, run 1":6127,"stable assay firefly, run 1":2.72e5}
{"Gene":"CG10132","PubChem SID":"SID104181805","stable assay Renilla, run 1":45791,"stable assay firefly, run 1":1.08e6}
{"Gene":"H","PubChem SID":"SID104196484","stable assay Renilla, run 1":8402,"stable assay firefly, run 1":3.55e5}
{"Gene":"CG30034 (retired record)","PubChem SID":"SID104185080","stable assay Renilla, run 1":6843,"stable assay firefly, run 1":3.97e5}
{"Gene":"CG7945 + yellow-k","PubChem SID":"SID104190643","stable assay Renilla, run 1":6511,"stable assay firefly, run 1":4.26e5}
{"Gene":"Rpt6","PubChem SID":"SID104200363","stable assay Renilla, run 1":6851,"stable assay firefly, run 1":4.15e5}
{"Gene":"CG17564","PubChem SID":"SID104182418","stable assay Renilla, run 1":7546,"stable assay firefly, run 1":4.36e5}
{"Gene":"Bub3","PubChem SID":"SID104193960","stable assay Renilla, run 1":8508,"stable assay firefly, run 1":4.71e5}
{"Gene":"CG12288","PubChem SID":"SID104181947","stable assay Renilla, run 1":7598,"stable assay firefly, run 1":4.15e5}
{"Gene":"CG15468","PubChem SID":"SID104197843","stable assay Renilla, run 1":6115,"stable assay firefly, run 1":3.37e5}
{"Gene":"Orc6","PubChem SID":"SID104187289","stable assay Renilla, run 1":7210,"stable assay firefly, run 1":5.03e5}
{"Gene":"rdx","PubChem SID":"SID104194318","stable assay Renilla, run 1":4799,"stable assay firefly, run 1":1.85e5}
{"Gene":"rdx","PubChem SID":"SID104196372","stable assay Renilla, run 1":7475,"stable assay firefly, run 1":3.71e5}
{"Gene":"rdx","PubChem SID":"SID104202477","stable assay Renilla, run 1":4635,"stable assay firefly, run 1":3.71e5}
{"Gene":"CG4653","PubChem SID":"SID104199701","stable assay Renilla, run 1":4363,"stable assay firefly, run 1":5.01e5}
{"Gene":"CG4653","PubChem SID":"SID104202216","stable assay Renilla, run 1":4359,"stable assay firefly, run 1":3.82e5}
{"Gene":"pins","PubChem SID":"SID104196835","stable assay Renilla, run 1":7007,"stable assay firefly, run 1":4.53e5}
{"Gene":"kdn","PubChem SID":"SID104198120","stable assay Renilla, run 1":6340,"stable assay firefly, run 1":3.31e5}
{"Gene":"Ak2","PubChem SID":"SID104183835","stable assay Renilla, run 1":6952,"stable assay firefly, run 1":6.20e5}
